For seven molecules, binding results are on record in PMC12137850.

By UniProt entry, the sequences of proteins in these tests, tags left out. Residues count along the entry.
UniProt P05107, residues 23-769: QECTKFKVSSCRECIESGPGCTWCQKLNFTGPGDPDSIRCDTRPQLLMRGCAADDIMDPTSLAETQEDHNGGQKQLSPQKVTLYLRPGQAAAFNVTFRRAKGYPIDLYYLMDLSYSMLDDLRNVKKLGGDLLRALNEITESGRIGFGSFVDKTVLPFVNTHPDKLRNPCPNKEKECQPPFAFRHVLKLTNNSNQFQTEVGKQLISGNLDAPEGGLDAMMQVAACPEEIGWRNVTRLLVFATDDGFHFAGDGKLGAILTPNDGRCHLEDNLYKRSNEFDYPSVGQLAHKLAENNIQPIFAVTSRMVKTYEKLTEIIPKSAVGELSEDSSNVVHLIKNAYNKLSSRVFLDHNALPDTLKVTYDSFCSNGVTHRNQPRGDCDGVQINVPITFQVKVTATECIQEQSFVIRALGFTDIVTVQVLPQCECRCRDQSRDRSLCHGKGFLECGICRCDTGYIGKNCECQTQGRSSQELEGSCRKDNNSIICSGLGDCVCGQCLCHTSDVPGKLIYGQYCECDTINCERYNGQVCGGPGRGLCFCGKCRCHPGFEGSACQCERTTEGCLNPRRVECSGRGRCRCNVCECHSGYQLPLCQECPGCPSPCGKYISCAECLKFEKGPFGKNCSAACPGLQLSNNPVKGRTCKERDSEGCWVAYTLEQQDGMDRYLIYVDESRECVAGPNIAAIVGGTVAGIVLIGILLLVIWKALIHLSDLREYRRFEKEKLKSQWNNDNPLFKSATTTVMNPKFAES
UniProt P28907: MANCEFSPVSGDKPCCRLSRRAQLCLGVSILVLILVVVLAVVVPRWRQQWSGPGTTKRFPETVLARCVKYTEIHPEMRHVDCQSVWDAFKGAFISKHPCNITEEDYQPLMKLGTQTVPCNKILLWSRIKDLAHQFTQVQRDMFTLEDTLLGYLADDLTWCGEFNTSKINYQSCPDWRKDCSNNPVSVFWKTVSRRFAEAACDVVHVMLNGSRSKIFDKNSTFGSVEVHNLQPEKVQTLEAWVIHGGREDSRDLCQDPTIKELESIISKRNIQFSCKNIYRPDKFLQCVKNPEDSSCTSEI

T1: GFP-tagged CD151 (human) (UniProt P48509)
T1 sequence: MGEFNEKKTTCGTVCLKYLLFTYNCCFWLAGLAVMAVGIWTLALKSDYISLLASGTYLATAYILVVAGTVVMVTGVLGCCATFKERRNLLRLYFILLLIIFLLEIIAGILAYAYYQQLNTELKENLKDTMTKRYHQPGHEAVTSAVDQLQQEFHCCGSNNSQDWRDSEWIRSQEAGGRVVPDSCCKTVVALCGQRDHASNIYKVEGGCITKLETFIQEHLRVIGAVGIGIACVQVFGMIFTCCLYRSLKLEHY

B1: CD81 (protein, UniProt P60033 1-236)
chain: MGVEGCTKCIKYLLFVFNFVFWLAGGVILGVALWLRHDPQTTNLLYLELGDKPAPNTFYVGIYILIAVGAVMMFVGFLGCYGAIQESQCLLGTFFTCLVILFACEVAAGIWGFVNKDQIAKDVKQFYDQALQQAVVDDDANNAKAVVKTFHETLDCCGSSTLTALTTSVLKNNLCPSGSNIISNLFKEDCHQKIDDLFSGKLYLIGIAAIVVAVIMIFEMILSMVLCCGIRNSSVY
B2: integrin beta 7 (ITGB7) (protein, UniProt P26010 20-798)
chain: ELDAKIPSTGDATEWRNPHLSMLGSCQPAPSCQKCILSHPSCAWCKQLNFTASGEAEARRCARREELLARGCPLEELEEPRGQQEVLQDQPLSQGARGEGATQLAPQRVRVTLRPGEPQQLQVRFLRAEGYPVDLYYLMDLSYSMKDDLERVRQLGHALLVRLQEVTHSVRIGFGSFVDKTVLPFVSTVPSKLRHPCPTRLERCQSPFSFHHVLSLTGDAQAFEREVGRQSVSGNLDSPEGGFDAILQAALCQEQIGWRNVSRLLVFTSDDTFHTAGDGKLGGIFMPSDGHCHLDSNGLYSRSTEFDYPSVGQVAQALSAANIQPIFAVTSAALPVYQELSKLIPKSAVGELSEDSSNVVQLIMDAYNSLSSTVTLEHSSLPPGVHISYESQCEGPEKREGKAEDRGQCNHVRINQTVTFWVSLQATHCLPEPHLLRLRALGFSEELIVELHTLCDCNCSDTQPQAPHCSDGQGHLQCGVCSCAPGRLGRLCECSVAELSSPDLESGCRAPNGTGPLCSGKGHCQCGRCSCSGQSSGHLCECDDASCERHEGILCGGFGRCQCGVCHCHANRTGRACECSGDMDSCISPEGGLCSGHGRCKCNRCQCLDGYYGALCDQCPGCKTPCERHRDCAECGAFRTGPLATNCSTACAHTNVTLALAPILDDGWCKERTLDNQLFFFLVEDDARGTVVLRVRPQEKGADHTQAIVLGCVGGIVAVGLGLVLAYRLSVEIYDRREYSRFEKEQQQLNWKQDSNPLYKSAITTTINPRFQEADSPTL
B3: CD37 (protein, UniProt P11049 1-281)
chain: MSAQESCLSLIKYFLFVFNLFFFVLGSLIFCFGIWILIDKTSFVSFVGLAFVPLQIWSKVLAISGIFTMGIALLGCVGALKELRCLLGLYFGMLLLLFATQITLGILISTQRAQLERSLRDVVEKTIQKYGTNPEETAAEESWDYVQFQLRCCGWHYPQDWFQVLILRGNGSEAHRVPCSCYNLSATNDSTILDKVILPQLSRLGHLARSRHSADICAVPAESHIYREGCAQGLQKWLHNNLISIVGICLGVGLLELGFMTLSIFLCRNLDHVYNRLARYR
B4: CD20 (MS4A1) (protein, UniProt P11836 1-297)
chain: MTTPRNSVNGTFPAEPMKGPIAMQSGPKPLFRRMSSLVGPTQSFFMRESKTLGAVQIMNGLFHIALGGLLMIPAGIYAPICVTVWYPLWGGIMYIISGSLLAATEKNSRKCLVKGKMIMNSLSLFAAISGMILSIMDILNIKISHFLKMESLNFIRAHTPYINIYNCEPANPSEKNSPSTQYCYSIQSLFLGILSVMLIFAFFQELVIAGIVENEWKRTCSRPKSNIVLLSAEEKKEQTIEIKEEVVGLTETSSQPKNEEDIEIIPIQEEEEEETETNFPEPPQDQESSPIENDSSP

These are yes or no findings as the source states them, for the method shown. Binding seen in cells or lysates may run through a third protein. A yes stands for co-enrichment or nearness to the bait. Other partners may have been found. Where a sequence is shown, tags or fusion partners need not be part of it.

One test has as its target T1, GFP-tagged CD151 (human). The test can be described thus: affinity purification with mass spectrometry; GFP-Trap agarose beads on lysates (1% IGEPAL CA-630 in PBS, protease inhibitors, on ice) of BJAB cells expressing GFP-tagged CD151; enrichment over control beads; in-gel trypsin digest, LC-MS/MS, label-free quantification.
On to “endogenous integrin beta 2 (ITGB2) (from UniProt P05107 23-769)”, for which the binding entry is “binds”.
As to “integrin alpha 6 (ITGA6) (human (endogenous in BJAB))”, the binding result is listed as “binds”.
Still for that read-out and setting: as for CD38 (from UniProt P28907 1-300), the entry is “binds”.

A further test concerns the target T1, GFP-tagged CD151 (human). The description is as above. This is another data set of the same source.
Consider B1, for which the binding result is reported as “binds”.
As to B2, the binding entry was “binds”.
The same measure, in the same setting: to B3 belongs “binds”.
With B4, the binding entry is listed as “binds”.
